Results deposited as PubChem BioAssay AID1259425 (University of Nebraska Medical Center, 2018)
Here is a random part of about 14,000 deposited reagents. Further read-outs or replicates are left out here. No sequences are given here. The record does not give: the time to read-out.

- Screen: 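Compare each knockdown with KSR1 silencing using changes in marker transcripts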 (primary screen)
- Cells: HCT116 human colon cancer cells
- Knock-down reagent: siRNA pool against human genes, 50 nM siRNA
- Measured: 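After 50 nM siRNA pool, branched-DNA assay measures six marker transcripts per well, minus blank, normalised to the geometric mean of two housekeeping transcripts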
- Direction: BNIP3L mRNA: higher = more BNIP3L transcript after knockdown

MED10 (mediator complex subunit 10)
- BNIP3L mRNA, set 1: 0.126

PSRC1 (proline and serine rich coiled-coil 1)
- BNIP3L mRNA, set 1: 0.186

PRKAR2A
- BNIP3L mRNA, set 1: 0.072

ELF2 (E74 like ETS transcription factor 2)
- BNIP3L mRNA, set 1: 0.0921

TMF1 (TATA element modulatory factor 1)
- BNIP3L mRNA, set 1: 0.0906

TAS1R1 (taste 1 receptor member 1)
- BNIP3L mRNA, set 1: 0.232

KCNS1
- BNIP3L mRNA, set 1: 0.172

PRDM16 (PR/SET domain 16)
- BNIP3L mRNA, set 1: 0.107

NDUFA1 (NADH:ubiquinone oxidoreductase subunit A1)
- BNIP3L mRNA, set 1: 0.0515

PLEKHM2 (pleckstrin homology and RUN domain containing M2)
- BNIP3L mRNA, set 1: 0.191

PPWD1 (peptidylprolyl isomerase domain and WD repeat containing 1)
- BNIP3L mRNA, set 1: 0.16

MYCBP (MYC binding protein)
- BNIP3L mRNA, set 1: 0.0914

TDO2 (tryptophan 2,3-dioxygenase)
- BNIP3L mRNA, set 1: 0.0979

NSMCE3 (NSE3 component of SMC5/6 complex)
- BNIP3L mRNA, set 1: 0.183

AATF (apoptosis antagonizing transcription factor)
- BNIP3L mRNA, set 1: 0.0519

ADRB3 (adrenoceptor beta 3)
- BNIP3L mRNA, set 1: 0.136

RFX7 (regulatory factor X7)
- BNIP3L mRNA, set 1: 0.163

TNFRSF12A (TNF receptor superfamily member 12A)
- BNIP3L mRNA, set 1: 0.102

DEPDC1B (DEP domain containing 1B)
- BNIP3L mRNA, set 1: 0.0336
